The list shows a part of the results. Entries with a potency or affinity are not part of this list.
tested on: Acinetobacter baumannii; details: Concentration 32 ug.mL-1; ASSAY_TEST Inhibition of Bacterial Growth; detection method Absorption (OD600); MEDIA CAMHB; plate type 384well; NBS; CORNING #3640; time 18 hr

| Compound | Inhibition [%] |
| --- | --- |
| Clc1ccc2c(c1)nc(-c1cscn1)n2Cc1ccc(Cl)nc1 | -10.91 |
| Clc1ccc(Cn2c(-c3cscn3)nc3ccccc32)cn1 | 2.13 |
| Clc1ccc(Cn2c(-c3cscn3)nc3c(Cl)cccc32)cn1 | -9.47 |

Reference: ChEMBL document CHEMBL4513154, “CO-ADD screening of Jain University (India) compounds”
